# Measurements reported in the supplement of paper PMC10849652.
# Sequences of proteins named here, by UniProt entry; tags and fusion partners are left off. A change or cut given only in a name is not applied to a line headed by its entry.
# UniProt P13010: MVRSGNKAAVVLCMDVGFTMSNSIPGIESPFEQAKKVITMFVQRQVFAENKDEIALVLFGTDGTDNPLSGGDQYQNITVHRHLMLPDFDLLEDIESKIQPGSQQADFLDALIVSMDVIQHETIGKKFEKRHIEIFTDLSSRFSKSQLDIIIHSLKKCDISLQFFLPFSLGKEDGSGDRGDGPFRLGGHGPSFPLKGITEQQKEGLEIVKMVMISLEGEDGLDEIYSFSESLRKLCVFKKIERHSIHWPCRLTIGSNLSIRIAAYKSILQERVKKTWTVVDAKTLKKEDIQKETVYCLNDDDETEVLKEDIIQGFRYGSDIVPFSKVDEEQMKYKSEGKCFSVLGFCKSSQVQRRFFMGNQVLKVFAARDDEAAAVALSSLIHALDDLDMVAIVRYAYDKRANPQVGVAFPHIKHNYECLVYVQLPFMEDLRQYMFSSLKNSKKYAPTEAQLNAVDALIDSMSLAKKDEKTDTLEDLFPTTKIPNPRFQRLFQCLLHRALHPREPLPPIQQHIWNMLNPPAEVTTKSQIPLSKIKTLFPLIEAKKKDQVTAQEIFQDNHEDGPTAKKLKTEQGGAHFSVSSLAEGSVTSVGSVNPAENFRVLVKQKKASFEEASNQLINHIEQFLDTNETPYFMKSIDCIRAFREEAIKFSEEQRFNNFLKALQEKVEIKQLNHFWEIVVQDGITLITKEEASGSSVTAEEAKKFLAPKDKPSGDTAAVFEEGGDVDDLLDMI
# UniProt Q969M3: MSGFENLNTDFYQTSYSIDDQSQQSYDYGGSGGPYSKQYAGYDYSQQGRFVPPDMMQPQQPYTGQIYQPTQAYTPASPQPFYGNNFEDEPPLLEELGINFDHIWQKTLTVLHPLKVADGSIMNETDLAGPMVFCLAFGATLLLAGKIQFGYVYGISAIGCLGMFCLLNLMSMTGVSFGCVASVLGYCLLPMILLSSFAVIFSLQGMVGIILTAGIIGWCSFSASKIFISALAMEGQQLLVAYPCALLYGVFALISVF
# UniProt Q96EC8: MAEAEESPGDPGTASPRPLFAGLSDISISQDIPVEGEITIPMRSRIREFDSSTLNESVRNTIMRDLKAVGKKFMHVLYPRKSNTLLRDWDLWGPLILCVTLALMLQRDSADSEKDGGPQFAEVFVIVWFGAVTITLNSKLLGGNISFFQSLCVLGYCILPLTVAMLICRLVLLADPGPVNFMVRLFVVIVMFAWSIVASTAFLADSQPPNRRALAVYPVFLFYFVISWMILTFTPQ
# UniProt Q8IX07: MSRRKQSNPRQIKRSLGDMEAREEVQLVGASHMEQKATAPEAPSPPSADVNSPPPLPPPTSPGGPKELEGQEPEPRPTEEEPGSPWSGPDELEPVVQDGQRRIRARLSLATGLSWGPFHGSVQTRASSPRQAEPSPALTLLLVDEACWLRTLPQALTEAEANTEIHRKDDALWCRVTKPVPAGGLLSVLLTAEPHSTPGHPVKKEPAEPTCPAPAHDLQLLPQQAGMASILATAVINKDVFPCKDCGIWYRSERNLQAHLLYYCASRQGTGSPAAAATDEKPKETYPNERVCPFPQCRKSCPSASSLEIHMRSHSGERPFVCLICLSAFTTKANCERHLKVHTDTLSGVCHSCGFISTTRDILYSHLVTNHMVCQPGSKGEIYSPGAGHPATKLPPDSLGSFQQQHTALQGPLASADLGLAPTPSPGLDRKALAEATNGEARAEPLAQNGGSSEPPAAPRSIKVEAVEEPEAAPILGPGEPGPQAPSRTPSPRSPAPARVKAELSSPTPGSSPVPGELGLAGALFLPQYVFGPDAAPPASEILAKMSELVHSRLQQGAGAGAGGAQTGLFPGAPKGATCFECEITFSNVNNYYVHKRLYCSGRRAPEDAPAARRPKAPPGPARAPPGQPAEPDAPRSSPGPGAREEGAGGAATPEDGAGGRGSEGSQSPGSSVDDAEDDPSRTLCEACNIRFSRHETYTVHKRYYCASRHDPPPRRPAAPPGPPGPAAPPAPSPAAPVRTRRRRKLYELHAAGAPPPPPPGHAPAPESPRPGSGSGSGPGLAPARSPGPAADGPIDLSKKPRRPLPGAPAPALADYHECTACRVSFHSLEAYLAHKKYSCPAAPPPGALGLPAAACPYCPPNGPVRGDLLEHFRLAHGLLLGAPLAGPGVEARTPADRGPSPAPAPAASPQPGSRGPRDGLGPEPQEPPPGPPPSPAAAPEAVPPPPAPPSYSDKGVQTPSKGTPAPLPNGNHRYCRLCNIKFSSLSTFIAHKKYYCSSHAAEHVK
# UniProt Q96K21: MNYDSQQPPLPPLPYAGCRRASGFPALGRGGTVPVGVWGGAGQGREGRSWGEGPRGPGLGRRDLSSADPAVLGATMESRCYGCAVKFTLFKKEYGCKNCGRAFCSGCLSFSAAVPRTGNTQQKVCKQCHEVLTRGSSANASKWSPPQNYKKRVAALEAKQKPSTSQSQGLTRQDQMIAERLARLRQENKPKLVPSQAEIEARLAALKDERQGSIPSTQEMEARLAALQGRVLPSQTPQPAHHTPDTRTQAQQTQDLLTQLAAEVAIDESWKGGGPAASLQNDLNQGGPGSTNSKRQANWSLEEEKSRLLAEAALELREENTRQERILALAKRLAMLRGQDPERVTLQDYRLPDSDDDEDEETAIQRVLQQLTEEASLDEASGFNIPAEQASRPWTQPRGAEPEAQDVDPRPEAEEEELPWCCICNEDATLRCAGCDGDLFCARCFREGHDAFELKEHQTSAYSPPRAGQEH
# UniProt O95405: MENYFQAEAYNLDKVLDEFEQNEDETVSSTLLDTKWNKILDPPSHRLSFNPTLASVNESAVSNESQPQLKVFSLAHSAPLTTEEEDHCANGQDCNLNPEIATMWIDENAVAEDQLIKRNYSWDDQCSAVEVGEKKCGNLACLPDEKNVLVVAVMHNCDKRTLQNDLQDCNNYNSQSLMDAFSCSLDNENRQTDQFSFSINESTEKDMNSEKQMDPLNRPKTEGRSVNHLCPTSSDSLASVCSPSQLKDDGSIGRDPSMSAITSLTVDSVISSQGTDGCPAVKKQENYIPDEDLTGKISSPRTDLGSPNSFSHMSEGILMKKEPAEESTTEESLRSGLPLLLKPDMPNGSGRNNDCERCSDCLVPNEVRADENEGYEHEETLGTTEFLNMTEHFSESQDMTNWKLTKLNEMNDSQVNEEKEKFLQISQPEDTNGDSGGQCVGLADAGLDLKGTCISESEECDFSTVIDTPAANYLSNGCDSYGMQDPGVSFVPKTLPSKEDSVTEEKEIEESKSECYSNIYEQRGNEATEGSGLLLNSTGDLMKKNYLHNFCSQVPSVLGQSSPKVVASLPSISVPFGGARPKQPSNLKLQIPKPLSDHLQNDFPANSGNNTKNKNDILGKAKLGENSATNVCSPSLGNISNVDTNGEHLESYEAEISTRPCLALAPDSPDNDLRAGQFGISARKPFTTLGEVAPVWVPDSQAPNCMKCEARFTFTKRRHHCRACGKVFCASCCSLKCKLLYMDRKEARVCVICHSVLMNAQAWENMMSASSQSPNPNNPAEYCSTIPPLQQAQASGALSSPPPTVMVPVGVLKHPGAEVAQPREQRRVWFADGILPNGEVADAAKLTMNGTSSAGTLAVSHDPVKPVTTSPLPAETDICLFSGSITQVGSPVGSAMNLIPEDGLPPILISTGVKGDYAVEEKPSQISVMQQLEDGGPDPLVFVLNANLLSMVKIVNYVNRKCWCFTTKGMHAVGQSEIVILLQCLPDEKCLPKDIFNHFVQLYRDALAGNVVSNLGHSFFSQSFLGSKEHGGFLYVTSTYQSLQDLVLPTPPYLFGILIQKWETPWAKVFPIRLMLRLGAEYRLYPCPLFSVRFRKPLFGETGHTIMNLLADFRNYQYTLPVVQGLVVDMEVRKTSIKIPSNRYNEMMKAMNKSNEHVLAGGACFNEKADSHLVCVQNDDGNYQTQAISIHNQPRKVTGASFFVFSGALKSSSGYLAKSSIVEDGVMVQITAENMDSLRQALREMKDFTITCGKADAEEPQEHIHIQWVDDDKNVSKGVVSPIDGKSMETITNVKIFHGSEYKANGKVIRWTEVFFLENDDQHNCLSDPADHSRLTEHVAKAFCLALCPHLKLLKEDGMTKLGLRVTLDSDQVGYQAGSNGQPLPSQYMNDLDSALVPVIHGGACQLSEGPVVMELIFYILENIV
# UniProt Q9BW85: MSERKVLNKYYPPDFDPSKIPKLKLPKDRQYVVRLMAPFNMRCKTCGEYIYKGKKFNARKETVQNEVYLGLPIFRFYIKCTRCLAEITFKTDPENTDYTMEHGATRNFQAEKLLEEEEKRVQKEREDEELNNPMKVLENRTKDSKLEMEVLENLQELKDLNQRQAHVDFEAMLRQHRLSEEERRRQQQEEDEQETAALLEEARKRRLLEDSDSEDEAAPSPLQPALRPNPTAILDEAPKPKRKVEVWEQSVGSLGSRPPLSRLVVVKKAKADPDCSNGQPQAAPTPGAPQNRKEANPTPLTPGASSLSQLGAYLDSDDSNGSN
# UniProt P27348: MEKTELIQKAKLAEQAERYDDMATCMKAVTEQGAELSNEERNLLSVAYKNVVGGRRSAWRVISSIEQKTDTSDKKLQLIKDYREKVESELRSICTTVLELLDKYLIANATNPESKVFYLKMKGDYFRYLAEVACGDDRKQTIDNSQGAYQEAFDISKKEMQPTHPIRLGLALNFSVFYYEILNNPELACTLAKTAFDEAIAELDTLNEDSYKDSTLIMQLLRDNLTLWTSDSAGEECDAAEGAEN
# UniProt Q7Z7L7: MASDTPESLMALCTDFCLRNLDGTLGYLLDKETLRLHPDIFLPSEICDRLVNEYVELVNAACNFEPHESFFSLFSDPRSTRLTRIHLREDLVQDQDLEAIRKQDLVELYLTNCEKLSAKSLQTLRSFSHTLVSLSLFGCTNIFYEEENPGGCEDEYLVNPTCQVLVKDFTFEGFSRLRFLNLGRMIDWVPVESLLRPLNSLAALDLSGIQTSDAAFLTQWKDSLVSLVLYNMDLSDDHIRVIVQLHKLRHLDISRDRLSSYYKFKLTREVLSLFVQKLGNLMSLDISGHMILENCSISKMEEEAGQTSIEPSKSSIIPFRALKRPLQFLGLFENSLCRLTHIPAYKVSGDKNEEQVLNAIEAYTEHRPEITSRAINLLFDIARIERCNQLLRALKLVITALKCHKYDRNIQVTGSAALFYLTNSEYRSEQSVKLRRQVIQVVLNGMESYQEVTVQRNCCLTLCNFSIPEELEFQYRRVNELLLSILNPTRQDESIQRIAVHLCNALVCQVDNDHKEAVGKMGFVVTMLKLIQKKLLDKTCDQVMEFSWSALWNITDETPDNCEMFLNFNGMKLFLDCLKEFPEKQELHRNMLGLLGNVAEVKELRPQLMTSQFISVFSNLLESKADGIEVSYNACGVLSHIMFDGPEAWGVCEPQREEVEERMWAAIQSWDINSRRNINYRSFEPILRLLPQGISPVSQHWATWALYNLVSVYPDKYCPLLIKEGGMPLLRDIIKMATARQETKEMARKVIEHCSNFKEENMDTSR
# UniProt Q8NBI6: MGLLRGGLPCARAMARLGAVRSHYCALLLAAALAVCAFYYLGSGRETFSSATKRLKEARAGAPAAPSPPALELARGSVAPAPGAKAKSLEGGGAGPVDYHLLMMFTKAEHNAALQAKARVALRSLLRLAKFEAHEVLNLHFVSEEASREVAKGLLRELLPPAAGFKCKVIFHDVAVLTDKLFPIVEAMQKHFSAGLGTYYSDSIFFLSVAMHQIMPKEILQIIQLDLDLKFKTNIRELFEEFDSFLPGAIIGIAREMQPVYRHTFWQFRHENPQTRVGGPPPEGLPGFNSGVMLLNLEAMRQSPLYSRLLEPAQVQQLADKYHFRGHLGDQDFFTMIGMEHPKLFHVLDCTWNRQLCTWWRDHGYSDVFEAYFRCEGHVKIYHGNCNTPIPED
# UniProt Q9NQH7: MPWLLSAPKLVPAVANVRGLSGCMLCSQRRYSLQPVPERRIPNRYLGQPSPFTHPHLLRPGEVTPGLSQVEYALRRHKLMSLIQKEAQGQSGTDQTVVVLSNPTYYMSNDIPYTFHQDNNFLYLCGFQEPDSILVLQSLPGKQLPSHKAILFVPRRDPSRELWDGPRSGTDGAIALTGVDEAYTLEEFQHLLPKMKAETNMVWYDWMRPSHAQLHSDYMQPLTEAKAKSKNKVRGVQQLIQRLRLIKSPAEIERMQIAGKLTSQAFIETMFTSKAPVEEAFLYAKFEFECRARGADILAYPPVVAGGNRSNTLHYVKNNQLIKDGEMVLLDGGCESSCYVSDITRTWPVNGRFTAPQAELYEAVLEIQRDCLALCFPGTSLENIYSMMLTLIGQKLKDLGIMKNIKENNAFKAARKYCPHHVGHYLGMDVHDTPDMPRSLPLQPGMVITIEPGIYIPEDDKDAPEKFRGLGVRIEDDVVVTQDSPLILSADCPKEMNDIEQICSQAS
# UniProt Q6FIF0: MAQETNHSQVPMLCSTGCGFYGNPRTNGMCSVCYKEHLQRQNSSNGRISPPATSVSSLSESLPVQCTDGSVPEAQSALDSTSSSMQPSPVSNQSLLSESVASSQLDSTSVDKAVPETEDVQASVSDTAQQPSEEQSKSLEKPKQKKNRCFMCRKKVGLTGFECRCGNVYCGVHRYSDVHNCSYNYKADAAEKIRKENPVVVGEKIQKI
# The list shows a part of the results.
# Columns and labels:
# Experiment in all cases: log2 fold change, soluble protein after heating vs DMSO (PISA); higher = thermal stabilisation; K562 lysate, 10 uM; active = over 0.2 and 3.5 SD of the protein, either way, in both replicates (recomputed)
# alvocidib = compound: CN1CC[C@H](c2c(O)cc(O)c3c(=O)cc(-c4ccccc4Cl)oc23)[C@H](O)C1 [alvocidib]
# Summary of the method: (§1)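 K562 pellets were dounce-homogenised in PBS pH 7.4 containing 1 mM MgCl2, and the crude extract, at 1 mg/mL protein, was exposed to 10 μM compound for 30 min. Aliquots were heated for 3 min across 48°C-58°C, pooled, brought to 0.5% NP-40 at 4°C and spun at 21,000xg for 90 min, with the supernatant taken as soluble protein. TMTpro 16plex LC-MS/MS with equalised channel sums quantified that protein. Values are log-two fold changes in thermal stability relative to solvent controls, taken from duplicates.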
# Tubastatin A = compound: CN1CCc2c(c3ccccc3n2Cc2ccc(C(=O)NO)cc2)C1 [Tubastatin A]
# Summary of the method: as §1
# [1] = compound: CNC(=O)C1=CC=CC=C1NC2=NC(=NC=C2Cl)NC3=C(C=C(C=C3)N4CCOCC4)OC
# Summary of the method: as §1
# defactinib = compound: CNC(=O)c1ccc(Nc2ncc(C(F)(F)F)c(NCc3nccnc3N(C)S(C)(=O)=O)n2)cc1 [defactinib]
# Summary of the method: as §1
# [2] = compound: CNc1nc(-c2ccc3c(N)n[nH]c3c2)cc(N2C[C@@H](C(=O)NC3CCCCC3)CC[C@H]2C)n1
# Summary of the method: as §1
# encorafenib = compound: COC(=O)N[C@@H](C)CNc1nccc(-c2cn(C(C)C)nc2-c2cc(Cl)cc(NS(C)(=O)=O)c2F)n1 [encorafenib]
# Summary of the method: as §1
# [3] = compound: COC(=O)[C@H](CCSC)NC(=O)C1=C(C=C(C=C1)NC[C@H](CS)N)C2=CC=CC=C2
# Summary of the method: as §1
# alisertib = compound: COc1cc(Nc2ncc3c(n2)-c2ccc(Cl)cc2C(c2c(F)cccc2OC)=NC3)ccc1C(=O)O [alisertib]
# Summary of the method: as §1
# [4] = compound: COc1cc2nc(-c3cc(F)ccc3O)nc(N[C@@H]3CNC[C@H]3C(C)(C)O)c2cc1OC
# Summary of the method: as §1
# gefitinib = compound: COc1cc2ncnc(Nc3ccc(F)c(Cl)c3)c2cc1OCCCN1CCOCC1 [gefitinib]
# Summary of the method: as §1
# lapatinib = compound: CS(=O)(=O)CCNCc1ccc(-c2ccc3ncnc(Nc4ccc(OCc5cccc(F)c5)c(Cl)c4)c3c2)o1 [lapatinib]
# Summary of the method: as §1
# pictilisib = compound: CS(=O)(=O)N1CCN(Cc2cc3nc(-c4cccc5[nH]ncc45)nc(N4CCOCC4)c3s2)CC1 [pictilisib]
# Summary of the method: as §1
# crizotinib = compound: C[C@@H](Oc1cc(-c2cnn(C3CCNCC3)c2)cnc1N)c1c(Cl)ccc(F)c1Cl [crizotinib]
# Summary of the method: as §1
# [5] = compound: C[C@H](C1=CC=C(C=C1)C(=O)NC2=C3C=CNC3=NC=C2)N
# Summary of the method: as §1
# duvelisib = compound: C[C@H](Nc1ncnc2nc[nH]c12)c1cc2cccc(Cl)c2c(=O)n1-c1ccccc1 [duvelisib]
# Summary of the method: as §1
# gandotinib = compound: Cc1cc(Nc2cc(CN3CCOCC3)c3nc(C)c(Cc4ccc(Cl)cc4F)n3n2)n[nH]1 [gandotinib]
# Summary of the method: as §1
# tozasertib = compound: Cc1cc(Nc2cc(N3CCN(C)CC3)nc(Sc3ccc(NC(=O)C4CC4)cc3)n2)n[nH]1 [tozasertib]
# Summary of the method: as §1
# doramapimod = compound: Cc1ccc(-n2nc(C(C)(C)C)cc2NC(=O)Nc2ccc(OCCN3CCOCC3)c3ccccc23)cc1 [doramapimod]
# Summary of the method: as §1
# bafetinib = compound: Cc1ccc(NC(=O)c2ccc(CN3CC[C@H](N(C)C)C3)c(C(F)(F)F)c2)cc1Nc1nccc(-c2cncnc2)n1 [bafetinib]
# Summary of the method: as §1
# [6] = compound: Cc1cccc(CC(=O)N2CCc3c2ccc(-c2cn(C)c4ncnc(N)c24)c3F)n1
# Summary of the method: as §1
Target,log2 fold change (alvocidib),log2 fold change (Tubastatin A),log2 fold change [1],log2 fold change (defactinib),log2 fold change [2],log2 fold change (encorafenib),log2 fold change [3],log2 fold change (alisertib),log2 fold change [4],log2 fold change (gefitinib),log2 fold change (lapatinib),log2 fold change (pictilisib),log2 fold change (crizotinib),log2 fold change [5],log2 fold change (duvelisib),log2 fold change (gandotinib),log2 fold change (tozasertib),log2 fold change (doramapimod),log2 fold change (bafetinib),log2 fold change [6]
XRCC5 (UniProt P13010),inactive: 0.016,inactive: -0.066,inactive: -0.02,inactive: 0.004,inactive: -0.021,inactive: 0.002,inactive: 0.076,inactive: 0.005,inactive: -0.006,inactive: -0.006,inactive: -0.016,inactive: -0.009,inactive: -0.018,inactive: 0.068,inactive: 0.008,inactive: -0.067,inactive: -0.003,inactive: -0.024,inactive: -0.022,inactive: -0.015
YIPF5 isoform 3 (UniProt Q969M3),inactive: -0.02,inactive: 0.048,inactive: 0.051,inactive: 0.042,inactive: 0.037,inactive: 0.064,inactive: -0.04,inactive: -0.124,inactive: 0.057,inactive: 0.036,inactive: 0.016,inactive: 0.029,inactive: -0.063,inactive: -0.048,inactive: 0.035,inactive: 0.006,inactive: -0.038,inactive: 0.039,inactive: -0.014,inactive: 0.156
XRN2 (UniProt Q9H0D6),inactive: -0.01,inactive: -0.009,inactive: 0.002,inactive: 0.027,inactive: 0.005,inactive: 0.027,inactive: 0.046,inactive: -0.004,inactive: -0.041,inactive: 0.031,inactive: -0.003,inactive: -0.014,inactive: 0.03,inactive: -0.017,inactive: -0.043,inactive: 0.014,inactive: -0.043,inactive: 0.042,inactive: 0.007,inactive: -0.017
YIPF6 (UniProt Q96EC8),inactive: -0.019,inactive: -0.001,inactive: 0.07,inactive: 0.224,inactive: -0.064,inactive: -0.026,inactive: -0.004,inactive: 0.094,inactive: -0.02,inactive: 0.006,inactive: -0.004,inactive: -0.011,inactive: -0.049,inactive: -0.002,inactive: -0.081,inactive: -0.027,inactive: -0.016,inactive: 0.031,inactive: 0.148,inactive: -0.011
ZFPM1 (UniProt Q8IX07),inactive: 0.014,inactive: 0.024,inactive: -0.022,inactive: 0,inactive: 0.007,inactive: 0.072,inactive: -0.009,inactive: -0.011,inactive: 0.018,inactive: -0.006,inactive: -0.003,inactive: -0.008,inactive: -0.135,inactive: 0.009,inactive: 0.001,inactive: -0.079,inactive: -0.118,inactive: 0.023,inactive: -0.077,inactive: -0.018
ZFYVE19 (UniProt Q96K21),inactive: -0.141,inactive: 0.026,inactive: -0.037,inactive: -0.002,inactive: 0.008,inactive: -0.001,inactive: -0.04,inactive: 0.008,inactive: 0,inactive: 0.019,inactive: 0.042,inactive: 0.017,inactive: 0.007,inactive: -0.125,inactive: -0.005,inactive: 0.085,inactive: 0.046,inactive: -0.029,inactive: 0,inactive: 0.149
ZFYVE9 (UniProt O95405),inactive: -0.039,inactive: 0.01,inactive: 0.028,inactive: -0.059,inactive: -0.043,inactive: 0.034,inactive: 0.114,inactive: 0.007,inactive: -0.004,inactive: 0.09,inactive: -0.032,inactive: -0.089,inactive: -0.016,inactive: -0.027,inactive: 0.006,inactive: 0.013,inactive: -0.095,inactive: -0.014,inactive: -0.022,inactive: 0.019
YJU2 (UniProt Q9BW85),inactive: -0.026,inactive: 0.008,inactive: -0.017,inactive: -0.006,inactive: -0.017,inactive: 0.054,inactive: -0.034,inactive: -0.048,inactive: -0.006,inactive: -0.024,inactive: 0.029,inactive: 0.024,inactive: 0.01,inactive: 0.037,inactive: 0.006,inactive: 0.085,inactive: -0.007,inactive: -0.071,inactive: -0.006,inactive: 0.043
YWHAQ (UniProt P27348),inactive: 0.16,inactive: -0.021,inactive: -0.006,inactive: 0,inactive: 0.023,inactive: -0.025,inactive: -0.045,inactive: -0.014,inactive: 0.008,inactive: -0.06,inactive: 0.001,inactive: 0.038,inactive: 0.07,active: 0.466,inactive: -0.012,inactive: -0.089,inactive: -0.024,inactive: -0.043,inactive: -0.043,inactive: -0.095
ZER1 (UniProt Q7Z7L7),inactive: -0.073,inactive: -0.085,inactive: 0.037,inactive: 0.125,inactive: 0.037,inactive: 0.033,inactive: -0.178,inactive: 0.067,inactive: -0.044,inactive: -0.059,inactive: 0.044,inactive: -0.101,inactive: 0.066,inactive: -0.262,inactive: 0.008,inactive: 0.07,inactive: -0.112,inactive: 0.209,inactive: 0.038,inactive: 0.083
XXYLT1 (UniProt Q8NBI6),inactive: -0.002,inactive: 0.065,inactive: 0.042,inactive: 0.023,inactive: -0.026,inactive: 0.122,inactive: 0.043,inactive: 0.014,inactive: -0.008,inactive: 0.056,inactive: -0.045,inactive: -0.038,inactive: -0.036,inactive: 0,inactive: 0.034,inactive: -0.023,inactive: -0.02,inactive: -0.03,inactive: -0.051,inactive: 0.044
XPNPEP3 (UniProt Q9NQH7),inactive: 0.014,inactive: 0.024,inactive: -0.009,inactive: 0.02,inactive: 0.045,inactive: 0.03,inactive: -0.039,inactive: -0.053,inactive: 0.013,inactive: -0.03,inactive: -0.013,inactive: 0,inactive: 0,inactive: -0.026,inactive: -0.02,inactive: 0.042,inactive: -0.056,inactive: -0.071,inactive: -0.001,inactive: -0.049
ZFAND6 (UniProt Q6FIF0),inactive: -0.058,inactive: 0.126,inactive: 0.084,inactive: -0.015,inactive: 0.002,inactive: 0.015,inactive: -0.02,inactive: -0.02,inactive: -0.028,inactive: 0.014,inactive: 0.027,inactive: 0.018,inactive: -0.051,inactive: -0.096,inactive: 0.008,inactive: 0.033,inactive: -0.037,inactive: 0.062,inactive: 0.004,inactive: 0.005
YTHDF2 (UniProt Q9Y5A9),inactive: 0.032,inactive: -0.163,inactive: -0.007,inactive: 0.019,inactive: -0.078,inactive: 0.123,inactive: -0.064,inactive: 0.028,inactive: -0.006,inactive: 0.01,inactive: -0.025,inactive: 0.057,inactive: 0.035,inactive: 0.095,inactive: -0.057,inactive: 0.017,inactive: 0.011,inactive: 0.028,inactive: -0.058,inactive: -0.062
YPEL5 (UniProt P62699),inactive: -0.004,inactive: 0.025,inactive: -0.03,inactive: -0.026,inactive: -0.012,inactive: 0.025,inactive: -0.038,inactive: 0.047,inactive: -0.013,inactive: 0.058,inactive: -0.089,inactive: 0.054,inactive: -0.132,inactive: 0.032,inactive: 0.004,inactive: -0.086,inactive: 0.037,inactive: 0.1,inactive: -0.052,inactive: -0.062
XYLB (UniProt O75191),inactive: 0.139,inactive: 0.043,inactive: -0.012,inactive: -0.066,inactive: 0.038,inactive: 0.161,inactive: 0.001,inactive: -0.146,inactive: 0.014,inactive: -0.069,inactive: -0.042,inactive: -0.001,inactive: -0.048,inactive: 0.035,inactive: 0.062,inactive: -0.011,inactive: -0.116,inactive: 0.045,inactive: -0.132,inactive: -0.06

# Look-ups from above:
# XPNPEP3 (UniProt Q9NQH7) – log2 fold change (encorafenib): inactive: 0.03
# ZFAND6 (UniProt Q6FIF0) – log2 fold change [5]: inactive: -0.096
